In the supplement of paper PMC8497498:
This is one part of the list. The data scatter; read single values as rough.

Experiments:
Conditions in all cases: 10 µM
[1] = system: Plasmodium vivax liver stage (primary human hepatocyte culture); assay: hypnozoite quantity inhibition (% inhibition); higher = more active against hypnozoites
[2] = system: Plasmodium vivax liver stage (primary human hepatocyte culture); assay: schizont net growth area inhibition (% inhibition); higher = more active against liver schizonts
[3] = system: primary human hepatocytes; assay: hepatic nuclei reduction relative to DMSO (100 - % of negative control); higher = more toxic to hepatocytes
[4] = assay mode: Prophylactic (treated before or shortly after infection), fixed day 6 post-infection
[5] = assay mode: Radical Cure (treated from day 5 post-infection for 3 days), fixed day 8 post-infection

Row | Structure (SMILES) | hypnozoite quantity inhibition [1, 4] | hypnozoite quantity inhibition [1, 5] | schizont net growth area inhibition [2, 4] | schizont net growth area inhibition [2, 5] | hepatic nuclei reduction [3, 4] | hepatic nuclei reduction [3, 5]
1 | CC(C)(C)n1nc(Cc2cccc3ccccc23)c2c(N)ncnc21 | -5 | -77 | -4 | -18.4 | -10% | -11%
2 | COc1cccc(C2(C)Nc3ccccc3-c3nc4ccccc4n32)c1 (centres undefined) | -8.8 | 37.4 | 10.7 | 19.8 | -1% | -2%
3 | CCCCCCC(O)(c1ccc(F)cc1)C(CN1CCOCC1)c1ccccc1 (centres undefined) | -7 | -0.8 | -12.9 | -3.8 | 6% | -5%
4 | CCN(CC)Cc1cc(Nc2ccnc3cc(Cl)ccc23)ccc1O | -48 | 15 | 51.4 | 41.4 | 0% | -7%
5 | CCCCc1c(CCC)c(=N)c2ccccc2n1C | -19.1 | 47.3 | -73.6 | -50.7 | 1% | -2%
6 | CCOc1ccc2cc(-c3nn(C(C)(C)C)c(N)c3C(N)=O)cnc2c1 | 27 | -44 | 35 | -70.1 | 7% | -3%
7 | COc1cccc(C=Cc2nc(=O)c3ccccc3o2)c1OC | -15.4 | 42.7 | 31.9 | 35.7 | -4% | 0%
8 | Cc1ccc2nc(C)c(-c3ccn(Cc4ccccc4)n3)n2c1 | -112 | -43 | -67 | -26.9 | -12% | -7%
9 | CCOC(=O)c1cnc2ccc(OC)cc2c1NCc1ccccc1 | 11.4 | -0.8 | 26.2 | -25 | -2% | -4%
10 | COc1ccc(C(=O)Nc2nonc2-c2ccc(OC)c(OC)c2)cc1Cl | 2.5 | -6.2 | -0.4 | -9.7 | -4% | -7%
11 | COc1cc(C(F)(F)F)nc2ccc(C)c(N)c12 | -40 | 24 | -82.1 | 15.5 | -11% | -4%
12 | CC(NCc1ccccc1)c1cc(Cl)ccc1O (centres undefined) | 6.3 | 29.2 | -71.6 | -30.6 | -4% | -5%
13 | CCCCc1ccc(C(=O)Nc2nccc3ccccc23)nc1 | 5 | -4 | 65.5 | -65.7 | -11% | -3%
14 | CCn1c(CN2CCN(Cc3ccccc3)CC2)nc2cc(NC(=O)c3cccs3)ccc21 | 48 | 18.3 | 96.3 | -67.6 | 1% | -9%
15 | Cc1ccc(CN2CCC(C(=O)Nc3ccc(-c4cc5ccccc5[nH]4)cc3)CC2)o1 | -5.7 | 26.5 | -37.5 | -21.2 | -1% | -6%
16 | O=C(Cn1ccnc1[N+](=O)[O-])NCc1ccccc1 | 28 | 22 | 11.8 | -15.1 | 2% | -5%
17 | Cn1c(=O)n(C)c2cc(CNCCNc3ccnc4cc(Cl)ccc34)ccc21 | -41.4 | 45 | -14.5 | -18.3 | 5% | 3%
18 | CC(=O)NC[C@@H]1CN(c2ccc(N3CCOCC3)c(F)c2)C(=O)O1 | 18 | -31 | 38.5 | 16.3 | -2% | -5%
19 | COc1cc(C2=NCCN2)ccc1-n1cc(-c2cccc(C3=NCCN3)c2)nn1 | -11 | 9 | -19.4 | 38.6 | 1% | 0%
20 | COc1cncc(-c2cncc(N3CCN(c4ccncc4)CC3)n2)c1 | -85 | -20 | -3.7 | -64.9 | -10% | -5%
21 | CCOc1ccc2nc(C)cc(Nc3ccc(Br)cc3)c2c1 | -5 | 35.9 | -3.4 | 28.3 | -4% | -11%
22 | Cc1nnc(NC(=O)c2cn(-c3ccccc3)nc2-c2ccccc2C)o1 | -68 | -25 | -20.7 | -35.2 | 5% | 8%
23 | CS(=O)(=O)Cc1nc2ccccc2oc1=O | 5 | 1 | -21 | -13.6 | -4% | -11%
24 | CN(C(=O)c1cc2c(-c3cncnc3)cccc2[nH]1)c1ccccc1 | 23 | 2 | 101 | 105 | -7% | 1%
25 | CC(C)(C)C(=O)N(CCCCCCN1C[C@H](O)[C@@H](O)[C@H](O)[C@H]1CO)C1CCCCCC1 | 18 | 19 | -2.5 | 46.7 | 1% | -5%
26 | CCOc1ccc(CN2CCN(CC(O)COc3ccc(OCC(O)CN4CCN(Cc5ccc(OCC)cc5)CC4)cc3)CC2)cc1 (centres undefined) | -13.9 | 22.1 | -11.2 | 48.8 | 0% | 3%
27 | Cc1nn(C(=O)Nc2cccc(C(F)(F)F)c2)c(C)c1Sc1ncccn1 | -26 | 0 | 2.4 | 35.8 | -8% | 2%
28 | COc1ccc(N(CCc2cccc(C)n2)C(=O)C2CCCCC2)cc1 | 2 | 31 | -37.2 | 6.6 | -4% | -1%
29 | CCOC(=O)c1cnc2c(C)cccc2c1Nc1ccc(C(C)=O)cc1 | -0.6 | 47.3 | 44.2 | 45.8 | -6% | 4%

Record cards, from the list above:
COc1cccc(C=Cc2nc(=O)c3ccccc3o2)c1OC is listed as hypnozoite quantity inhibition [1, 4]: -15.4; hypnozoite quantity inhibition [1, 5]: 42.7; schizont net growth area inhibition [2, 4]: 31.9; schizont net growth area inhibition [2, 5]: 35.7; hepatic nuclei reduction [3, 4]: -4%; hepatic nuclei reduction [3, 5]: 0%
Cn1c(=O)n(C)c2cc(CNCCNc3ccnc4cc(Cl)ccc34)ccc21 is listed as hypnozoite quantity inhibition [1, 4]: -41.4; hypnozoite quantity inhibition [1, 5]: 45; schizont net growth area inhibition [2, 4]: -14.5; schizont net growth area inhibition [2, 5]: -18.3; hepatic nuclei reduction [3, 4]: 5%; hepatic nuclei reduction [3, 5]: 3%
